# Reference: PubChem BioAssay AID1671190 (National Center for Advancing Translational Sciences (NCATS), 2021)
# Sequences of proteins named here, by UniProt entry; tags and fusion partners are left off.
# UniProt P18054, whole entry, looked up: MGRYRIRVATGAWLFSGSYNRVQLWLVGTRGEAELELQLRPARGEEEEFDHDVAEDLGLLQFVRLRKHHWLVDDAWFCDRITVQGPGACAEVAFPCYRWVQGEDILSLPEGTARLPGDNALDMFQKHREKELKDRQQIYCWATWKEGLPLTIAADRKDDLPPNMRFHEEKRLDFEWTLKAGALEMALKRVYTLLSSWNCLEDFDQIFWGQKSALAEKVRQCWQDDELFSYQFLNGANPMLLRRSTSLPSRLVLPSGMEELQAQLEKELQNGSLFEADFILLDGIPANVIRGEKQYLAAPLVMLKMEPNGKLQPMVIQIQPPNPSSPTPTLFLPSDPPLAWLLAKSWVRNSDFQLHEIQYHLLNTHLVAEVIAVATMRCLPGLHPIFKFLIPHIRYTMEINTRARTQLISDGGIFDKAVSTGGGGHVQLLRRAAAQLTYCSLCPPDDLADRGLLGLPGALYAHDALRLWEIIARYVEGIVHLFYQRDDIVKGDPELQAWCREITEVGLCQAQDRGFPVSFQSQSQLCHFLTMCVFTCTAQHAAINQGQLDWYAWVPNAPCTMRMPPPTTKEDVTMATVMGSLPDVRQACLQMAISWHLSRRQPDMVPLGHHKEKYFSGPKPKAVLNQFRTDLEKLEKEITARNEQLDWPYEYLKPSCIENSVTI
# Out of some 580,000 compounds screened, about 6,100 (1.1%) were called active. Inconclusive means that the source gave no clear call. Such entries were picked first, then a sample of the others. Calls come from the whole dose curve; as a rule, active = well fitted inhibition curve with a large enough effect; inconclusive = small, poorly fitted or top-dose-only effect, or another doubt; inactive = no such curve, though single readings can be large or run the other way. A potency beside an inconclusive call is a rough fit, not a confirmed value.
# Biological target: Polyunsaturated fatty acid lipoxygenase ALOX12 (Homo sapiens) (UniProt P18054)
# Experiment: Primary qHTS assay for inhibitors of human arachidonate 12S-lipoxygenase (ALOX12): Round 2
# Details: purified 12hLO, xylenol orange hydroperoxide absorbance; series mostly up to 108 µM
# In short: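 Purified human 12hLO at 150 nM in 25 mM Hepes, 0.01% Triton X-100, pH 7.0, preincubated 15 min at room temperature with compound. Reaction started with 40 uM arachidonic acid, 30 min at room temperature. Hydroperoxide measured by Fe-xylenol orange, 573/405 nm absorbance ratio.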
# Potency is the fitted concentration of half-maximal effect.
row,Structure (SMILES),Potency
1,COc1cc(-c2oc3cc(O)cc(O)c3c(=O)c2O[C@@H]2O[C@H](CO)[C@@H](O)[C@H](O)[C@H]2O)cc(OC)c1O,"inconclusive: 0.631 µM [inhibitor, full curve]"
2,Cc1ccc(C)c(SCC(=O)Cc2ccccc2F)c1,inactive
3,Cc1ccccc1-c1nc(CN2CCC(C(=O)NC3CCN(Cc4ccccc4)CC3)CC2)c(C)o1,inactive
4,O=C(COC(=O)c1ccccc1NCCO)Nc1ccc(S(=O)(=O)NC2=NCCCCC2)cc1,"inconclusive: 44.7 µM [inhibitor, partial curve, poor fit]"
5,CSc1cccc(NC(=O)c2cnn(-c3ccc(F)cc3)c2-n2cccc2)c1,"inconclusive: 89.1 µM [inhibitor, partial curve, poor fit]"
6,CCOc1ccccc1NC(=O)Cn1c(C)cc(=O)n2nc(-c3cccs3)nc12,"inconclusive: 35.5 µM [inhibitor, partial curve, poor fit]"
7,O=C(COc1ccc(F)cc1Br)Nc1ccccc1N1CCOCC1,"inconclusive: 31.6 µM [inhibitor, single point]"
8,COc1ccc(C2NC(=O)c3sc(=S)n(-c4ccccc4)c3N2)cc1 (stereo not given),"inconclusive: 20 µM [inhibitor, partial curve, poor fit]"
9,C[C@H]1[C@@H]2[C@@H](O)C([C@H](C)C(=O)N(C)Cc3ccccc3)CC[C@@]2(C)CC[C@@H]1NC(=O)Cc1ccccc1 (stereo not given in full),"inconclusive: 79.4 µM [inhibitor, partial curve, poor fit]"
10,O=C(c1ccccc1)c1ccc(N2CCCC2)cc1,"inconclusive: 44.7 µM [inhibitor, partial curve, poor fit]"
11,COc1ccc2oc(=O)c(C(=O)NCc3ccc(C)cc3)cc2c1,"inconclusive: 39.8 µM [inhibitor, partial curve, poor fit]"
12,CC1=C[C@@H](CNC(=O)NC(C)C)[C@H](C(C)C)C[C@H]1Cc1nnc(-c2ccccc2F)o1,inactive
13,C[C@@H]1CC=C[C@H]2[C@H]1C(=O)N(Cc1ccccc1)[C@H]2c1ccc2ccccc2c1Br,"inconclusive: 50.1 µM [inhibitor, single point]"
14,Cc1cccc(CN2C[C@@H](C(=O)O)C[C@H](C(=O)N3CCN(C)CC3)C2)n1,inactive
15,CC(C)C(NC(=O)c1ccc(Cl)cc1)C(C)C,inactive
16,N=C1C(c2nc3ccccc3s2)=C(O)CN1C1CCCCC1,inactive
17,CCC12CCCN3CCC4(C(=C(C(=O)OC)C1)Nc1ccccc14)C32 (stereo not given),"inconclusive: 44.7 µM [inhibitor, partial curve, poor fit]"
18,O=C(NC(=S)Nc1ccccn1)c1ccc([N+](=O)[O-])cc1,inactive
19,O=S1(=O)CCN2C(c3cc(Cl)ccc3Cl)=CSC2=N1,inactive
20,COC(=O)C1=C(C(=O)OC)C2(OC1c1ccccc1C)C(=O)c1ccccc1C2=O (stereo not given),"inconclusive: 112 µM [inhibitor, single point]"
21,CCCn1c(NC(=O)c2ccccc2)nc2ccccc21,inactive
22,CCN(CC)S(=O)(=O)c1ccc(Cl)c(NC(=S)NC(=O)C2CCCC2)c1,active: 15.8 µM
23,O=C(Nc1nnc(-c2ccncc2)o1)c1ccccc1,inactive
24,Cn1cccc1CC(=O)N/N=C\c1ccccc1,inactive

# Look-ups from the list:
# In Potency, COc1ccc2oc(=O)c(C(=O)NCc3ccc(C)cc3)cc2c1 is listed with inconclusive: 39.8 µM [inhibitor, partial curve, poor fit]
# In Potency, N=C1C(c2nc3ccccc3s2)=C(O)CN1C1CCCCC1 is listed with inactive

# Further results follow:

row,Structure (SMILES),Potency
1,Cc1ccc(CN2CCC(CNC(=O)c3cnn(-c4ccccc4Cl)c3C3CCN(C(=O)OC(C)(C)C)CC3)CC2)cc1,"inconclusive: 126 µM [inhibitor, single point]"
2,Cc1ccc(S(=O)(=O)N2CCCC(C(=O)N3CCCc4ccccc43)C2)cc1 (stereo not given),"inconclusive: 50.1 µM [inhibitor, partial curve, poor fit]"
3,C/C(CC1CC(COCC(C)C)OC1=O)=N\NC(N)=S (stereo not given),"inconclusive: 8.91 µM [inhibitor, full curve, poor fit]"
4,CC(C)[C@H](NC(N)=O)C(=O)NCCc1ccc(Cl)cc1Cl,"inconclusive: 44.7 µM [inhibitor, partial curve]"
5,COc1ccc(-c2csc(C3CCSC(C)(C)C3)n2)cc1 (stereo not given),"inconclusive: 17.8 µM [inhibitor, partial curve, poor fit]"
6,O=C(COC(=O)c1ccc(OC(F)F)cc1)NCCNC(=O)COC(=O)c1ccc(OC(F)F)cc1,"inconclusive: 39.8 µM [inhibitor, partial curve]"
7,CC(=O)c1cccc(NC(=O)c2cccc(N3C(=O)c4ccccc4C3=O)c2)c1,"inconclusive: 141 µM [inhibitor, single point]"
8,COCCN1C[C@H]2CN(C(=O)c3ccno3)CCN2C1=O,inactive
9,CC(=O)n1cc(CO)c2ccccc21,inactive
10,Cn1c(=O)c2[nH]c(NCc3ccc(F)cc3)nc2n(C)c1=O,inactive
11,Cn1c(COc2ccccc2)nnc1SCC(=O)NC1CCCC1,inactive
12,Cc1ccc(CNC(Cc2c[nH]c3ccccc23)C(=O)O)cc1 (stereo not given),"inconclusive: 126 µM [inhibitor, single point]"
13,CC(=O)NCC1CCCN(Cc2cn(-c3ccccc3F)nc2-c2cc(C)sc2C)C1 (stereo not given),inactive
14,Cc1cccnc1C(NC(=O)C1CCN(Cc2cn(C)c3ccccc23)CC1)c1ccc(Cl)cc1 (stereo not given),"inconclusive: 44.7 µM [inhibitor, partial curve, poor fit]"
15,COc1ccc(C(O)c2nc(-c3cccc(C(C)C)c3)cs2)cc1 (stereo not given),"inconclusive: 79.4 µM [inhibitor, single point]"
16,Cc1ccc([C@H]2C[C@@H](n3cc(COC(=O)c4ccccc4)nn3)[C@H](O)CN2C(=O)c2cccs2)cc1,"inconclusive: 141 µM [inhibitor, partial curve, poor fit]"
17,COc1ccccc1-c1cncnc1Nc1ccc(F)cc1,"inconclusive: 56.2 µM [inhibitor, partial curve, poor fit]"
18,Cn1nc(C(=O)OCC(=O)Nc2cc(C(F)(F)F)ccc2Cl)c2ccccc2c1=O,inactive
19,O=C(c1ccccc1)C1CC1c1ccccc1 (stereo not given),"inconclusive: 39.8 µM [inhibitor, partial curve, poor fit]"
20,CCC1CCC2(CC1)SCC(=O)N2c1ccccc1 (stereo not given),"inconclusive: 89.1 µM [inhibitor, partial curve, poor fit]"
21,Cc1csc(NC(=O)C(C)N2C(=O)c3ccccc3S2(=O)=O)n1 (stereo not given),"inconclusive: 44.7 µM [inhibitor, partial curve, poor fit]"
22,CCCn1nc2cc(C(=O)NCC34CC5CC(CC(C5)C3)C4)ccc2c1OCC,"inconclusive: 2.24 µM [inhibitor, full curve, poor fit]"
23,Cc1cccc2cc(CN(Cc3nnnn3C3CCCCC3)C3CCCC3)c3nnnn3c12,inactive
24,Cc1c(C(=O)N(C)Cc2nc3ccsc3c(=O)[nH]2)cnn1-c1ccccc1F,inactive

row,Structure (SMILES),Potency
1,COc1ccccc1NC1=Nc2cccc3cccc1c23,"inconclusive: 126 µM [inhibitor, single point]"
2,CCOc1ccc(N(CC)C(=O)COc2cc(=O)n(C)c3ccccc23)cc1,"inconclusive: 70.8 µM [inhibitor, single point]"
3,CCSc1ncc(Cl)c(C(=O)Nc2ccccc2Cl)n1,inactive
4,CCC(CC)C(=O)Nc1c(C)cc(C)cc1C,inactive
5,CCN1CCc2c(sc(N)c2C#N)C1,inactive
6,Cc1ccc(Cn2c(SCc3ccc(C(=O)NC4CCCCC4)cc3)nc3ccncc32)cc1,inactive
7,CSc1cccc(NC(=O)C2CCN(c3nc4ccccc4[nH]3)CC2)c1,"inconclusive: 178 µM [inhibitor, partial curve, poor fit]"
8,CNC(=O)c1cc2cc(OC)ccc2n1CCN(C)C,inactive
9,O=C1NC(=S)SC1=Cc1ccc(F)cc1,"inconclusive: 44.7 µM [inhibitor, partial curve, poor fit]"
10,O=C(COc1ccc([N+](=O)[O-])cc1Cl)c1ccc2c(c1)OCCO2,"inconclusive: 89.1 µM [inhibitor, single point]"
11,CN(C)S(=O)(=O)c1ccc(N2CCCC2)c(C(=O)Nc2ccc(Br)cc2F)c1,"inconclusive: 112 µM [inhibitor, partial curve, poor fit]"
12,O=S(=O)(Nc1ccc(-c2cn3ccsc3n2)cc1)c1ccc2c(c1)OCCO2,"inconclusive: 10 µM [inhibitor, full curve, poor fit]"
13,COc1cc(C(=O)Nc2ccc(N3CCOCC3)nc2)cc2c1OCCO2,inactive
14,CC(=O)/C(=N\Nc1ccccc1)Oc1ccc(Br)cc1,"inconclusive: 100 µM [inhibitor, partial curve, poor fit]"
15,COC(=O)C1CN(Cc2ccc(F)cc2)CCS(=O)(=O)N1Cc1cn(CCOC(C)=O)nn1 (stereo not given),"inconclusive: 17.8 µM [inhibitor, full curve, poor fit]"
16,COc1cc(OC)c(C(=S)N2CCCC2)cc1OC,"inconclusive: 44.7 µM [inhibitor, partial curve, poor fit]"
17,COc1ccc(NC(=O)c2c(NCc3cccs3)sc3c2CCC(C)C3)c(OC)c1 (stereo not given),"inconclusive: 44.7 µM [inhibitor, partial curve, poor fit]"
18,Cc1cccc(CN2CCN(C(=O)c3ccccc3F)CC2)c1,"inconclusive: 0.708 µM [inhibitor, full curve, poor fit]"
19,Cc1ccc(/C=C(/CC(=O)O)c2nc3ccccc3o2)s1,inactive
20,COc1ccc(C(=O)N2CCCCCCNC(=O)[C@@H]3C[C@@H](c4nc(C(C)C)no4)C[C@@H]32)cn1,inactive
21,Cc1sc2nc(CSCC(=O)Nc3ccc(Cl)cc3F)[nH]c(=O)c2c1C,inactive
22,O=C(O)/C=C/c1ccccc1OCc1ccccc1,"inconclusive: 50.1 µM [inhibitor, partial curve, poor fit]"

# 2 of these compounds, set out differently.
row	Structure (SMILES)	Potency
4	CC(C)[C@H](NC(N)=O)C(=O)NCCc1ccc(Cl)cc1Cl	inconclusive: 44.7 µM [inhibitor, partial curve]
5	COc1ccc(-c2csc(C3CCSC(C)(C)C3)n2)cc1 (stereo not given)	inconclusive: 17.8 µM [inhibitor, partial curve, poor fit]
